Primary screen of a compound library

Amino acid sequences for entries named in this document (tags omitted). Residues count along the entry.
UniProt I6X8D2, whole entry: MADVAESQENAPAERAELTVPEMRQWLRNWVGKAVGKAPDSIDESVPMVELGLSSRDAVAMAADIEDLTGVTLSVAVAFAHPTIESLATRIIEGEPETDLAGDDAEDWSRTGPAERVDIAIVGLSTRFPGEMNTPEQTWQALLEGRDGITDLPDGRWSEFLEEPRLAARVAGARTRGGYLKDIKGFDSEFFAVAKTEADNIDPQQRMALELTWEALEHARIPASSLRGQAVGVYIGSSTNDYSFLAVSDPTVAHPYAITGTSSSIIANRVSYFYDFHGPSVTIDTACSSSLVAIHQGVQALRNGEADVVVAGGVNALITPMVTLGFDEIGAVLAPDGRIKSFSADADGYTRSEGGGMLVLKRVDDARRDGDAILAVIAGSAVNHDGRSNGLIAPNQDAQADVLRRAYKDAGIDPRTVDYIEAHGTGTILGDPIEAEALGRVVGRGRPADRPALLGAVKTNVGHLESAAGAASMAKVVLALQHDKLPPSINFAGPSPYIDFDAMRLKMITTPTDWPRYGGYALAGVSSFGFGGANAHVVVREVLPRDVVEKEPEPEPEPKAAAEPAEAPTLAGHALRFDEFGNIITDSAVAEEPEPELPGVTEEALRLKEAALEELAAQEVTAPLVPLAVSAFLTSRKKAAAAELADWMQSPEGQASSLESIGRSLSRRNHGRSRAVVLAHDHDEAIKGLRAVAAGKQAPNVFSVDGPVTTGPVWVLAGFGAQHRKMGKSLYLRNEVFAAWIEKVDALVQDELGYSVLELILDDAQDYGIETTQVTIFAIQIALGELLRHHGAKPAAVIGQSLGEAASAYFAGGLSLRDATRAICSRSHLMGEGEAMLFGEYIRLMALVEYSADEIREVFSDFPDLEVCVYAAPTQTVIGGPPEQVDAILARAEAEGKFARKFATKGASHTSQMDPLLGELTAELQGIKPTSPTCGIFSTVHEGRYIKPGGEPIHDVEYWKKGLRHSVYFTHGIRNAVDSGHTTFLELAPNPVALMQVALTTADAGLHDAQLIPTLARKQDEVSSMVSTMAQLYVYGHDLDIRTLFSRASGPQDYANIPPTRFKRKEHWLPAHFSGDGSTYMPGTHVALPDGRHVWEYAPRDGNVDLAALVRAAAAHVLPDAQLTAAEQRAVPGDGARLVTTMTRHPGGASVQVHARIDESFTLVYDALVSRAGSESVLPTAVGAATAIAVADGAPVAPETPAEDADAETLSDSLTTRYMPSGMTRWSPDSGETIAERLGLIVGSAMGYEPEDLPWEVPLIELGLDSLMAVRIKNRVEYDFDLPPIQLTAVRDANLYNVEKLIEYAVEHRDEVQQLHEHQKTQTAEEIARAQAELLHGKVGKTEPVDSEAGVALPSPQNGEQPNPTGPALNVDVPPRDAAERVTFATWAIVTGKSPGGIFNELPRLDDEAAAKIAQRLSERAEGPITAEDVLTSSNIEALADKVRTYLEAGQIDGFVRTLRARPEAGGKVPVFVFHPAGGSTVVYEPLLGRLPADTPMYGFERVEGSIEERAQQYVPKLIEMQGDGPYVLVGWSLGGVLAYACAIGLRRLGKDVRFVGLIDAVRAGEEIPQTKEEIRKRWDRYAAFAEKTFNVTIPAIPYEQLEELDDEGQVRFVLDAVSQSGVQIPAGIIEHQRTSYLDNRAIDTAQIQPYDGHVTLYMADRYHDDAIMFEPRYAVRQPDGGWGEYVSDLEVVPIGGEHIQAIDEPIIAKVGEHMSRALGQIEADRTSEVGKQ
UniProt Q8IDJ8, 1-583: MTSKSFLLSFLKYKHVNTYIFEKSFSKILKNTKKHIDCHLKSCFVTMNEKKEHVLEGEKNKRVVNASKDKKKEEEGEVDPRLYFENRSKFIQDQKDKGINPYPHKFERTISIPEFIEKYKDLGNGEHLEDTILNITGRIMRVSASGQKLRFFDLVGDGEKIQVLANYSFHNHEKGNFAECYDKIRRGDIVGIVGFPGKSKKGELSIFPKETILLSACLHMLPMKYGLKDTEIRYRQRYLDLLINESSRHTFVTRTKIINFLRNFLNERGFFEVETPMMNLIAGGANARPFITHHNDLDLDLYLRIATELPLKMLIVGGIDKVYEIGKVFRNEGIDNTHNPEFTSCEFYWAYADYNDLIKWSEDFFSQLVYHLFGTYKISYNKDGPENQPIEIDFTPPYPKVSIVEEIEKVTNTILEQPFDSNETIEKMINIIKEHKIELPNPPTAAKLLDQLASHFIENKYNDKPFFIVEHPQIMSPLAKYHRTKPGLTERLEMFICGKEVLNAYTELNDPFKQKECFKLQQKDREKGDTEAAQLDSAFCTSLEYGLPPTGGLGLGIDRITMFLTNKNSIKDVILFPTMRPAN
UniProt A4I591, 1-473: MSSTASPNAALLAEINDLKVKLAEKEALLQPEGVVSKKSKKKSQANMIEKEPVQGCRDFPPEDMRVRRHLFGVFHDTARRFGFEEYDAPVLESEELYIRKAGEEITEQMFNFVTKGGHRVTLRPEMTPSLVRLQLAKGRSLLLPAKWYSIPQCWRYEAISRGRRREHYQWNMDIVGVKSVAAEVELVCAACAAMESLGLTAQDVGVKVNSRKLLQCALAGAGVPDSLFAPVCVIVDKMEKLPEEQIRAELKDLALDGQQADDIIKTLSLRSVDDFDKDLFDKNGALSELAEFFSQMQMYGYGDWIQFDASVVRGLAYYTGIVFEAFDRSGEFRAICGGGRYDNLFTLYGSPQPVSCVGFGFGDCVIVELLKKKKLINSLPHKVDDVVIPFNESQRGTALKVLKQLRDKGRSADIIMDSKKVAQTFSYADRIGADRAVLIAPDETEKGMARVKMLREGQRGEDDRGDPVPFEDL
UniProt Q4DA54, 1-478: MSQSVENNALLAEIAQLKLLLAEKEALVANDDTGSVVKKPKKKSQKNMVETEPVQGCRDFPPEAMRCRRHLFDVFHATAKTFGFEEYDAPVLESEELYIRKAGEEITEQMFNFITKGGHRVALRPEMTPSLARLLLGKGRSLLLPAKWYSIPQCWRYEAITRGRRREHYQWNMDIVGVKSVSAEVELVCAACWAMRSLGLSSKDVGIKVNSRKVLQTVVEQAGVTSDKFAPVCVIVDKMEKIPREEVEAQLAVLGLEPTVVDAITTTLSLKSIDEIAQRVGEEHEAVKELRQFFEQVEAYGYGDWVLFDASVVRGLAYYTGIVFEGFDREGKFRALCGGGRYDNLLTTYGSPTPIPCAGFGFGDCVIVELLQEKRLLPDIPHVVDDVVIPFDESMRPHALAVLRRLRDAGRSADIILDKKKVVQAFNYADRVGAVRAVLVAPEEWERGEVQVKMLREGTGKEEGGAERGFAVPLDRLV

Pks13 thioesterase: 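Polyketide synthase Pks13, Mycobacterium tuberculosis (UniProt I6X8D2). Enzyme assay of the thioesterase domain of polyketide synthase 13; the read-out is not stated. Concentration: 30 µM. Higher reads as stronger inhibition (inferred from which compounds were picked for retests). Size under these conditions: about 67,000 compounds, about 300 of them at 50% or above in at least one test.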
PfKRS1: 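Enzyme assay of the cytosolic lysyl-tRNA synthetase in 384-well plates, read by luminescence. Target: Lysine-tRNA ligase, Plasmodium falciparum 3D7 (UniProt Q8IDJ8). Concentration: 30 µM. Direction is inferred from only a few compounds that gave an IC50; most scored high, so higher reads as stronger inhibition. Size under these conditions: about 69,000 compounds, about 49 of them at 50% or above in at least one test.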
LiHisRS: 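Enzyme assay of histidyl-tRNA synthetase; the read-out is not stated. Target: Histidine-tRNA ligase, Leishmania infantum (UniProt A4I591). Compounds at 30 µM. Direction is inferred from retests: higher values go with stronger inhibition. The assay is labelled LdHisRS but filed under L. infantum. Size under these conditions: about 69,000 compounds, about 410 of them at 50% or above in at least one test.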
TcHisRS: 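Histidine-tRNA ligase, Trypanosoma cruzi CL Brener (UniProt Q4DA54). Enzyme assay of histidyl-tRNA synthetase; the read-out is not stated. Concentration: 30 µM. Higher reads as stronger inhibition (inferred: compounds with an IC50 in retests scored well above the rest). About 69,000 compounds were tested under these conditions; 0.045% (about 31) showed 50% or more at least once.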

Values are the deposited “Percent Effect”, in %. The controls that fix the scale are not given in the record; negative values are as filed. This is an unselected part of the compounds tested.

SMILES | Pks13 thioesterase | PfKRS1 | LiHisRS | TcHisRS
CN(C)Cc1cccc(-c2cccnc2C(=O)NCC2CC2)c1 | -15.44% | 1.18% | 4.196% | 2.825%
COCCS(=O)(=O)c1ncc(CN(C)C)n1Cc1ccccc1 | 6.311% | -9.172% | 6.452% | 4.386%
CC(=O)Nc1ccc2nn(C(C)C)cc2c1 | -3.678% | 3.645% | 21.21% | 8.387%
COCCCNC(=O)Nc1ccc(-n2cncn2)c(C(F)(F)F)c1 | -19.46% | -0.0934% | 7.339% | -0.5882%
Cn1cnnc1C1CCCN(C(=O)NCCOc2ccccc2)C1 (stereo unspecified) | -5.953% | 3.593% | 18.67% | -1.887%
CN(Cc1cn2c(n1)CN(C(=O)C1CCCO1)CC2)Cc1ccco1 (stereo unspecified) | -29.26% | 0.8802% | 15.04% | 2.151%
CCN1CCCC(O)(c2nc(C)c(CCOc3ccccc3Cl)s2)CC1 (stereo unspecified) | -8.535% | 3.328% | 13.1% | 9.886%
O=C(c1ccco1)N1CCCC12CCN(c1ncccn1)CC2 | -24.78% | 2% | 25% | 9.709%
Cc1ncnc2c1CCN(C(=O)c1cccn1C)CC2 | -14.67% | -2.841% | 11% | 3.061%
O=C1CN(c2ccc(CNC(=O)NCC3CCOC3)cc2)CCN1 (stereo unspecified) | 2.622% | 0.869% | 22.61% | 3.448%
O=C(NCC(F)(F)F)C(c1cccnc1)N1CCOCC1 (stereo unspecified) | -8.357% | 3.872% | 6.452% | 5.844%
Cc1ncsc1CCC(=O)NC1CCN(Cc2cccs2)CC1 | -6.334% | 0.03464% | 12.5% | -11.59%
COCC(=O)N1CCCC1(C(=O)N(C)C)c1cnccn1 (stereo unspecified) | -0.04352% | 0.9987% | 12.59% | 6.215%
N#CCCCn1nnnc1Cc1ccc(Br)cc1 | -36.26% | 1.108% | 9.859% | -0.6369%
CCn1c(C)nnc1CN(C)C1CCN(Cc2sc(C)nc2C)C1 (stereo unspecified) | -7.148% | 3.014% | 14.75% | 2.326%
CN1CCC(c2cc(C(F)(F)F)n3ccnc3n2)CC1 | -20.74% | -0.4852% | 7.246% | 4.396%
COCC1CN(C(=O)Nc2cc(C(F)(F)F)ccc2F)CCO1 (stereo unspecified) | -5.955% | 6.154% | 11.4% | 3.448%
NCC1Cc2cc(-c3cncc(C(=O)N4CCOCC4)n3)cc(Cl)c2O1 (stereo unspecified) | 6.363% | 4.505% | 10.26% | 7.303%
Cc1oc(C(=O)O)cc1S(=O)(=O)Nc1cc(Br)ccc1Cl | 2.386% | 0.4244% | 1.739% | -1.724%
Cc1cc(C(=O)N2CCCC2c2nc(C)cc(O)n2)on1 (stereo unspecified) | 12.71% | 2.575% | 19.79% | 6.383%
O=C(CCn1cncn1)N1CCCC(CO)(CCCc2ccccc2)C1 (stereo unspecified) | -11.06% | -2.056% | 3.922% | 4.938%
Cc1cnn(CC2CCN(CC(O)c3ccc(F)cc3)CC2)c1 (stereo unspecified) | -28.58% | 8.367% | 11.84% | 9.36%
Cc1nc(C)n(C2CCCN(C(=O)CCc3cscn3)C2)n1 (stereo unspecified) | -28.13% | -3.255% | -1.176% | 4.933%
Fc1cnc(N2CCCn3c(CN4CCOCC4)nnc3C2)nc1 | -10.15% | 5.595% | 13.13% | 4.516%
CCn1cnnc1C1CCN(C(=O)c2cc(F)ccc2OC)CC1 | -13.63% | -0.3436% | 10.43% | 2.299%
Cc1cc(C)n(C2CN(CC(O)c3cc(F)ccc3F)C2)n1 (stereo unspecified) | -14.21% | -0.9561% | 7.143% | 4.035%
CCNc1ncc(C(=O)NCCc2csc(CSC)n2)cn1 | 2.975% | 8.813% | 15.15% | 7.097%
CNS(=O)(=O)CCn1cc(-c2cc3c(cc2OC)CCC3)nn1 | 1.416% | 6.642% | 21.31% | 7.071%
CN(CC(=O)NCc1ccccn1)CC1CCCN1c1cccnn1 (stereo unspecified) | -1.765% | 7.888% | -13.46% | 4.813%
Cc1sc2nc(C(F)(F)F)nc(N3CCN(S(C)(=O)=O)CC3)c2c1C | 5.281% | 5.717% | 19.19% | 5.806%
CCS(=O)(=O)N1CCc2c(COCCN(C)C)cncc2C1 | -4.283% | 2.763% | 4.545% | 7.407%
N#CC1(NC(=O)c2ccc(F)c(Br)c2)CCSC1 (stereo unspecified) | -46.63% | 9.564% | 21.52% | 2.155%
NC(=O)c1cc(NC(=O)N2CCOCC2)ccc1F | -16.68% | 9.694% | 22.35% | -0.4484%
CN(C(=O)Cc1c[nH]c2ccccc12)C1CCN(c2ccccn2)CC1 | -13.31% | -0.634% | 14.86% | 4.906%
CCOc1cc(CN[C@@H]2COC[C@H]2Cc2cc(C)no2)ccc1O | -2.72% | 0.1445% | 12% | 1.498%
CC(C)N1CCC(Nc2ccn(C)n2)C1=O (stereo unspecified) | -25.12% | 4.858% | 15.38% | 7.027%
CCN1CC(C(=O)NCc2ccnc(-n3ccnc3C)c2)CC1=O (stereo unspecified) | -2.474% | 1.171% | 11.54% | 0.8264%
Cc1cnn(CC2CCCCN2Cc2c(C)noc2C)c1 (stereo unspecified) | -251% | 2.095% | 18.35% | 2.941%
CCc1ncc(CN2CCN(c3cc(NC4CC4)nc(N)n3)CC2)cn1 | -26.1% | 2.073% | 16.87% | 12.71%
Cc1ccc(OCC(=O)NS(=O)(=O)c2cccnc2)cc1C | -0.8684% | -1.395% | 20% | 1.141%
Cc1csc([C@H]2C[C@@H]3CCN(C(=O)c4ccnnc4)C[C@H]3O2)n1 | -13.41% | -2.771% | 11.5% | 10.75%
O=C(NCC(O)c1ccc(F)c(F)c1)c1cccnc1O (stereo unspecified) | -16.52% | 0.4231% | 19.05% | -4.132%
COc1cccc(S(=O)(=O)CCN2CCCN(C(C)=O)CC2)c1 | -4.722% | -5.006% | 4.854% | -2.905%
CCC(C)(CC(=O)OC)NCc1cc(C)on1 (stereo unspecified) | 3.76% | 0.5081% | 1.961% | -1.235%
COc1ccc(CCN2CC(n3nc(C)cc3C)C2)cc1 | -12.53% | -2.146% | 19.51% | 9.135%
Cc1ccc(C)c(C(C(=O)O)N2CCCN(Cc3ccccn3)CC2)c1 (stereo unspecified) | 5.717% | -4.051% | 11.43% | 4.959%
CN(C)CCN1CCCC12CCN(C(=O)c1ccoc1)CC2 | -24.02% | 4.729% | 22.94% | 6.25%
Cn1ccc(C(=O)NCCOc2ccc3c(c2)OCO3)cc1=O | -25.05% | 4.681% | 6.25% | 8.287%
Cc1ncc(C(=O)N2CCOC(C(=O)N3CCCCC3)C2)c(C)n1 (stereo unspecified) | 2.345% | -1.488% | 11.19% | 1.13%
CS(=O)(=O)NCc1ncn2c1CN(C(=O)C1CCCO1)CCC2 (stereo unspecified) | -7.568% | 2.793% | 15.84% | -2.513%
O=C(Nc1ncn(CC(=O)N2CCCCCC2)n1)C1CCCC1 | -6.176% | -1.147% | 5.505% | 2.353%
CCS(=O)(=O)N1CCC(Nc2c(F)cc(C#N)cc2F)CC1 | -5.23% | 6.677% | 16.67% | 1.724%
Cc1cc(NCCCNc2cccnc2)n2nc(C)c(C)c2n1 | -14.48% | 2.931% | 13.21% | 5%
O=C1COC[C@H]([C@H](O)c2ccc(NC(=O)c3ccco3)cc2)N1 | 8.022% | 6.762% | -5.405% | 3.483%
Cn1ccc(CN2CCCC23CCN(Cc2cccc(F)c2)CC3)n1 | -13.75% | 5.164% | 8.108% | 7.735%
Cn1ccc(C(=O)NCc2ccc(N3CCOCC3)nc2)cc1=O | -39.6% | 1.509% | 12.07% | 3.955%
O=C1CCC2(CCN(Cc3cc(F)ccc3Cl)CC2)CN1C1CCCC1 | -45.45% | -1.29% | 18.45% | 2.075%
Cc1ncsc1C(=O)NC1CCN(CC(=O)N(C)c2ccccc2)CC1 | -11.11% | 1.412% | 22.73% | 5.303%
CNc1oc(-c2ccc(OC)c(S(=O)(=O)N3CCCC3)c2)nc1C#N | -8.603% | -0.02425% | -34.21% | 2.924%
O=C(c1ccn(-c2cccc(Cl)c2)n1)N1CCN(C2CC2)CC1 | -12.35% | -2.121% | 5.479% | 3.053%
CC(=O)N(C)CC(=O)NCC1(c2c(F)cccc2F)CCCC1 | -22.62% | 5.21% | 27.4% | 5.464%
Cc1nccc(-c2cccc(NCc3nc(C(C)C)no3)c2)n1 | -15.5% | 0.3563% | 12.5% | 5.063%
CCOCc1ccccc1NC(=O)NC1CCN(c2ncccn2)CC1 | -36.86% | 2.224% | 15.38% | 3.933%
COCC(=O)NCC1CCCN(Cc2cc3ccccc3[nH]2)C1 (stereo unspecified) | -19.48% | 5.101% | 10.26% | -1.205%
c1nc(N2CCc3[nH]cnc3C2)c2cc[nH]c2n1 | -20.91% | -1.21% | 21.43% | 11.88%
CN(CC(=O)Nc1cc(-c2cc(Cl)cc(Cl)c2)[nH]n1)S(C)(=O)=O | -48.47% | 3.243% | 4.167% | 2.762%

The values are deposited in ChEMBL (CHEMBL3988442, “University of Dundee, Small-Polar-MMV Screening Library” (2021)).